Reference: patent US9676793B2, “Co-crystals of 5-amino-2-oxothiazolo[4,5-d]pyrimidin-3(2H)-yl-5-hydroxymethyl tetrahydrofuran-3-yl acetate and methods for preparing and using the same” (Hoffmann-La Roche Inc., priority 2014, dated 2017)

Experiment: Salt factor (S)

Substance: 5-amino-3-(2′-O-acetyl-3′-deoxy-β-D-ribofuranosyl)-3H-thiazolo[4,5]pyrimidine-2-one [glutaric acid co-crystal]
- Salt factor: 1.2
